Experimental data from PMC4140647.
No constants are given. Whether binding was seen depends on the method and setting. In cells and extracts the contact can be indirect. These calls come from enrichment with a bait or labelling near it, and not all partners need be listed. For some of these results: A no says only that the protein was not detected with the bait. Where a sequence is shown, tags or fusion partners need not be part of it.

T1: GFP-tagged RRP41 (Arabidopsis thaliana) (UniProt Q9SP08)
T1 sequence: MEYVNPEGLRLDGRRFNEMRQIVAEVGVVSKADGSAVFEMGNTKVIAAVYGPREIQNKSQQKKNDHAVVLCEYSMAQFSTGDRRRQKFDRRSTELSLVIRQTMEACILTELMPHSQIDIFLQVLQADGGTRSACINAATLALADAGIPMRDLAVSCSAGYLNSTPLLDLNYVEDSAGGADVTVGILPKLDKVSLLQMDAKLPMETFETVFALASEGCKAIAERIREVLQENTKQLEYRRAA

T2: myc-tagged RRP41 (Arabidopsis thaliana) (UniProt Q9SP08)
T2 sequence: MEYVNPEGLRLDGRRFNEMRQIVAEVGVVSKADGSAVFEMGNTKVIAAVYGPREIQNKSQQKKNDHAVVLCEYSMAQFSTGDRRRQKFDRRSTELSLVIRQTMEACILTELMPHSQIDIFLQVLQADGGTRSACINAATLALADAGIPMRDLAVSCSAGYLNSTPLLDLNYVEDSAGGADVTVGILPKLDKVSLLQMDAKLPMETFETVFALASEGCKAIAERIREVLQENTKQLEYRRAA

T3: HEN2-GFP (Arabidopsis thaliana) (UniProt Q9ZVW2)
T3 sequence: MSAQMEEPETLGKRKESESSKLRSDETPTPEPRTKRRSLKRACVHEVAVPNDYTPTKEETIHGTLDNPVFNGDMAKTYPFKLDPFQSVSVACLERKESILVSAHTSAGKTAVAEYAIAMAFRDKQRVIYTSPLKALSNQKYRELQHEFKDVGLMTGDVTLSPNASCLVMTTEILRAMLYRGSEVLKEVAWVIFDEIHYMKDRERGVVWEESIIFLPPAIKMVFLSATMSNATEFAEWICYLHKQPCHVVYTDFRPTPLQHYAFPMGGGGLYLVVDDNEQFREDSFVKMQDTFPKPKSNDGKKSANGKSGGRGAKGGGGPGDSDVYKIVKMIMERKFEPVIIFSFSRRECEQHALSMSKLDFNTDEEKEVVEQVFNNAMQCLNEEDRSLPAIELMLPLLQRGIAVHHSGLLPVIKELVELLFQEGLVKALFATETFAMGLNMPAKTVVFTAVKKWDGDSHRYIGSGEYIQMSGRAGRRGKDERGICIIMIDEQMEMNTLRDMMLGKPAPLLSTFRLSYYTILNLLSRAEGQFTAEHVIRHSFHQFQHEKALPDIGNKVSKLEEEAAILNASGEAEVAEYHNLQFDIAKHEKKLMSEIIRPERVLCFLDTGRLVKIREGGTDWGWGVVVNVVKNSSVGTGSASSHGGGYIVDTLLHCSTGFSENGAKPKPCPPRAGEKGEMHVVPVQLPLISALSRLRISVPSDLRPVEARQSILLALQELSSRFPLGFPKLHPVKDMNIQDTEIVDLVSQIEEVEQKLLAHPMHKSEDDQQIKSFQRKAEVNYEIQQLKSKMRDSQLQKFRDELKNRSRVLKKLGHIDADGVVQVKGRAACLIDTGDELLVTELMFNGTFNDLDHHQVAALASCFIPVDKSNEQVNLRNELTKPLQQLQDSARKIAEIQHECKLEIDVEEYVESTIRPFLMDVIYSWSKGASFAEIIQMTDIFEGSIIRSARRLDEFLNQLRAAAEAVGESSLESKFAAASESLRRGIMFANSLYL


Key:
[1] = molecular target: T1, GFP-tagged RRP41 (Arabidopsis thaliana); assay: affinity purification with mass spectrometry; RRP41-myc or RRP41-GFP extracted from flowers of stable Arabidopsis transformants, held on magnetic microparticles coated with monoclonal myc or GFP antibodies (MACS, Miltenyi), SDS omitted from washing buffers; nano LC-MS/MS; three biological repeats crossed, proteins of mock IPs excluded
[2] = molecular target: T2, myc-tagged RRP41 (Arabidopsis thaliana); assay: as above
[3] = molecular target: T3, HEN2-GFP (Arabidopsis thaliana); assay: affinity purification with mass spectrometry; HEN2-GFP (hen2 background) extracted from flowers, held on anti-GFP magnetic microparticles (MACS), 150 mM NaCl; LC-MS/MS; duplicates crossed, proteins of mock IPs excluded
[4] = molecular target: T3, HEN2-GFP (Arabidopsis thaliana); assay: affinity purification with mass spectrometry; HEN2-GFP (hen2 background) extracted from flowers, held on anti-GFP magnetic microparticles (MACS), 50 mM NaCl; LC-MS/MS; duplicates crossed, proteins of mock IPs excluded

| Binder | binding [1] | binding [2] | binding [3] | binding [4] |
| --- | --- | --- | --- | --- |
| RRP45A (protein, UniProt Q9LDM2 1-307) MEGRLNNMWRLTVNESKFVESALQSELRVDGRGLYDYRKLTIKFGKEYGSSQVQLGQTHVMAFVTAQLVQPYKDRPSEGSFSIFTEFSPMADPSFEPGHPGESAVELGRIIDRALRESRAVDTESLCVLAGKLVWSVRIDLHILDNGGNLVDAANVAALAALMTFRRPDCTVGGDNSQDVIIHPPEEREPLPLIIHHLPIAFTFGFFNKGSILVMDPTYVEEAVMCGRMTVTVNANGDICAIQKPGEEGVNQSVILHCLRLASSRASATTKIIRDAVEAYNRERSSQKVKRHHTLAKSEVLGPIVVV | binds | binds | no binding (only 150 mM NaCl) | binds |
| AtMTR4 (protein, UniProt Q9XIF2 1-988) MGSVKRKSVEESSDSAPPQKVQREDDSTQIINEELVGCVHDVSFPENYVPLAPSVHNKPPAKDFPFTLDSFQSEAIKCLDNGESVMVSAHTSAGKTVVASYAIAMSLKENQRVIYTSPIKALSNQKYRDFKEEFSDVGLMTGDVTIDPNASCLVMTTEILRSMQYKGSEIMREVAWIIFDEVHYMRDSERGVVWEESIVMAPKNSRFVFLSATVPNAKEFADWVAKVHQQPCHIVYTDYRPTPLQHYVFPAGGNGLYLVVDEKSKFHEDSFQKSLNALVPTNESDKKRDNGKFQKGLVIGKLGEESDIFKLVKMIIQRQYDPVILFSFSKKECEALAMQMSKMVLNSDDEKDAVETIFASAIDMLSDDDKKLPQVSNILPILKRGIGVHHSGLLPILKEVIEILFQEGLIKCLFATETFSIGLNMPAKTVVFTNVRKFDGDKFRWLSSGEYIQMSGRAGRRGIDKRGICILMVDEKMEPAVAKSMLKGSADSLNSAFHLSYNMLLNQLRCEEGDPENLLRNSFFQFQADRAIPDLEKQIKSLEEERDSLVIEEEESLKNYYNLILQYKSLKKDIREIVFTPKYCLPFLLPNRAVCLDCTNDDEEPQSFSIEDQDTWGVIMKFNKVKSLSEDDDSRRPEDANYTVDVLTRCMVSKDGVGKKKVKAVPIKERGEPVVVTVPLSQIKSLSSAIMNIPKDLVPLEARENALKKVSELLSRHPDGIPLDPEVDMKIKSSSYKKTVRRLEALENLFEKHKIAKSPLITEKLKVLQMKEELIAKIKSLKKTVRSSTALAFKDELKARKRVLRRLGYITSDNVVELKGKVACEISSAEELTLTELMFSGIFKDAKVEELVSLLSCFVWRERLPDAAKPREELDLLFIQLQDTARRVAEVQLDCKVEIDVESFVQSFRPDIMEAVYAWAKGSKFYEVMEIARVFEGSLIRAIRRMEEVLQQLIVAAKSIGETQLEAKLEEAVSKIKRDIVFAASLYL | binds | binds |  |  |
| HEN2 (protein, UniProt Q9ZVW2 1-995) MSAQMEEPETLGKRKESESSKLRSDETPTPEPRTKRRSLKRACVHEVAVPNDYTPTKEETIHGTLDNPVFNGDMAKTYPFKLDPFQSVSVACLERKESILVSAHTSAGKTAVAEYAIAMAFRDKQRVIYTSPLKALSNQKYRELQHEFKDVGLMTGDVTLSPNASCLVMTTEILRAMLYRGSEVLKEVAWVIFDEIHYMKDRERGVVWEESIIFLPPAIKMVFLSATMSNATEFAEWICYLHKQPCHVVYTDFRPTPLQHYAFPMGGGGLYLVVDDNEQFREDSFVKMQDTFPKPKSNDGKKSANGKSGGRGAKGGGGPGDSDVYKIVKMIMERKFEPVIIFSFSRRECEQHALSMSKLDFNTDEEKEVVEQVFNNAMQCLNEEDRSLPAIELMLPLLQRGIAVHHSGLLPVIKELVELLFQEGLVKALFATETFAMGLNMPAKTVVFTAVKKWDGDSHRYIGSGEYIQMSGRAGRRGKDERGICIIMIDEQMEMNTLRDMMLGKPAPLLSTFRLSYYTILNLLSRAEGQFTAEHVIRHSFHQFQHEKALPDIGNKVSKLEEEAAILNASGEAEVAEYHNLQFDIAKHEKKLMSEIIRPERVLCFLDTGRLVKIREGGTDWGWGVVVNVVKNSSVGTGSASSHGGGYIVDTLLHCSTGFSENGAKPKPCPPRAGEKGEMHVVPVQLPLISALSRLRISVPSDLRPVEARQSILLALQELSSRFPLGFPKLHPVKDMNIQDTEIVDLVSQIEEVEQKLLAHPMHKSEDDQQIKSFQRKAEVNYEIQQLKSKMRDSQLQKFRDELKNRSRVLKKLGHIDADGVVQVKGRAACLIDTGDELLVTELMFNGTFNDLDHHQVAALASCFIPVDKSNEQVNLRNELTKPLQQLQDSARKIAEIQHECKLEIDVEEYVESTIRPFLMDVIYSWSKGASFAEIIQMTDIFEGSIIRSARRLDEFLNQLRAAAEAVGESSLESKFAAASESLRRGIMFANSLYL | binds | binds |  |  |
| RRP44/DIS3 (enzyme, UniProt Q9SHL7 1-933) MLQSKVFNKKTRGGRIQKQVREVYLRDDIYCGAFSCKSCDSSAARLSSSKIIVVDTNVVLHQIDLLENKAIDTVVVLSVVLDEVKNRNRSVYNRIRLLCSNPARQFYVFSNHVHKDTYVQAMEKESANDHNDRAIRVATLWYQKHLGDTSQVLLVTNDRENKRKATEEGISAETIEAYVKSLGQPELLDLLAQPTNEDITMEDADDSRPSKRKLIYQEHKPMSEITAGLHRGIYHQGKLRVNRFNPYEAYVGSESIGEEIIIYGRSNMNRAFDGDIVAVELLPRDQWQDEKALSIAEEDDEEDDTVHLAPDNVDDAPRTSNLSHETSGDKNAAPVRPSGRVVGVIRRNWHSYCGSLEPMSLPAGSGGTAHALFVSKDRRIPKIRINTRQLQNLLDMRIVVAVDSWDRQSRYPSGHYVRPIGKIGDKETETEVVLIENDVDYSPFSSQVLACLPPLPWSVSSEDVSNPVRQDLRHLLVFSVDPPGCKDIDDALHCTSLPNGNFELGVHIADVTNFVHPGTPLDDEASKRGTSVYLVERRIDMLPKPLTEDICSLRADVERLAFSVIWEMSPDAEIISTRFTKSIIKSSAALSYIEAQARMDDSRLTDSLTTDLRNMNTLAKIMRQRRIDRGALTLASAEVKFDIDPENHDPLNIGMYQILEANQMVEEFMLAANVSVAGQILKLFPSCSLLRRHPTPTREMLEPLLRTAAAIGLTLDVSSSKALADSLDRAVGEDPYFNKLIRILATRCMTQAVYFCSGDLSPPEYHHYGLAAPLYTHFTSPIRRYADVFVHRLLAASLGIYKLPTVFQDRPQLTSVADNLNYRHRNAQMAGRASVELYVLIYFRTRPTDEEARVVKIRSNGFIVFVPKYGIEGPVYLTGKGEKGAGDWYVDEEKQKIVKMDGSLSYSVLQTVKIHMEVVEPQPNRPKLQLTLL | binds | binds |  |  |
